Results taken from PMC8850199, “Structure, mechanism and lipid-mediated remodeling of the mammalian Na^+/H^+ exchanger NHA2” (Nature Structural & Molecular Biology, 2022).
Results are given in words; binding and its absence hold for the method and conditions named. Some binding calls cover weakened binding; strength is not graded here. Tags and fused reporters may be left off the sequences shown.

Biological target: bison NHA2ΔN Asp330Ala-Gln331Ala double mutant, GFP fusion (Bison bison)
Assay: SEC; FSEC (GFP fluorescence) of DDM-CHS solubilized membranes from S. cerevisiae AB11c; Superose 6 10/300, 20 mM Tris-HCl pH 7.5, 150 mM NaCl, 0.03% DDM

B1: bison NHA2ΔN Asp330Ala-Gln331Ala double mutant, GFP fusion (domain or fragment)
chain: RRRQIHACPPRGLLARVITNVTMVILLWAVVWSVTGSECLPGGNLFGIIMLFYCAIIGGKLFGLIKLPTLPPLPPLLGMLLAGFLIRNVPVISDNIQIKHKWSSALRSIALSVILVRAGLGLDSNALKKLKGVCVRLSLGPCLIEACTSAVLAYFLMGLPWQWGFMLGFVLGAVSPAVVVPSMLLLQEGGYGVEKGIPTLLMAAGSFDDILAITGFNTCLGMAFSTGSTVFNVLKGVLEVIIGVVTGLVLGFFIQYFPSSAADNLVWKRAFLVLGLSVLAVFSSTYFGFPGSGGLCTLVTAFLAGRGWASTKTDVEKVIAVAWDIFQPLLFGLIGAEVLITALRPETIGLCVATLGIAVLIRILVTYLMVCFAGFNIKEKIFISFAWLPKATVQAAIGSVALDTARSHGEKQLEGYGMDVLTVAFLSIIITAPVGSLLIGLLGPRLLQKAEQNKDEEDQGETSIQV
  binding: binds
